Patent publication US8987262B2, “Use of a beta blocker for the manufacture of a medicament for the treatment of hemangiomas” (Universite de Bordeaux, priority 2007, dated 2015)
At least one structure is not confirmed: it was looked up by name or label, or the drawing left a doubt.

Tested on: infantile capillary hemangiomas (IH)
Assay: Treatment of infants with infantile hemangioma (case reports, Examples 1-3)
Conditions: Example 1, drops 0.5 mg/kg/day

`C[C@H]1C[C@H]2[C@@H]3CCC4=CC(=O)C=C[C@]4(C)[C@@]3(F)[C@@H](O)C[C@]2(C)[C@@]1(O)C(=O)CO` [betamethasone] was tested, and the effect on hemangioma was “stopped growing”.
